Our source for the binding values is paper PMC6611588, “Quantitative high-throughput screening assays for the discovery and development of SIRPα-CD47 interaction inhibitors” (PLoS ONE, 2019).

Experiment [1] deals with SIRPα-biotin (UniProt P78324). Kind of experiment: SAXS; small-angle x-ray scattering of SIRPα-Avi in solution, 3 mg/mL and 4 mg/mL samples; methods in S1 File; both purified.
The target of experiment [2] is SIRPα-biotin (UniProt P78324). Kind of experiment: SEC; Superdex 75 in 20 mM HEPES pH 7.5, 0.15 M NaCl; purified SIRPα alone; both purified. For orientation: Size exclusion chromatography separates by hydrodynamic size, large species first.

These are yes or no findings as the source states them, for the method shown.

B1: SIRPα-biotin (domain or fragment, UniProt P78324 31-149, looked up)
chain: EEELQVIQPDKSVLVAAGETATLRCTATSLIPVGPIQWFRGAGPGRELIYNQKEGHFPRVTTVSDLTKRNNMDFSIRIGNITPADAGTYYCVKFRKGSPDDVEFKSGAGTELSVRAKPS
modifications: biotin on the C-terminal Avi-Tag (BirA in vitro, >98% incorporation)
notes: SIRPα (SHPS-1) isoform 1 allele 1, extracellular domain d1, residues 31-149 of UniProt P78324, codon-optimised; Not glycosylated (made in E. coli); also called SIRPα-Avi (before biotinylation); SHPS-1 isoform 1 extracellular domain d1; not shown: His6-thioredoxin-SUMO, N-terminal, cleaved; Avi-Tag, C-terminal, kept
Take B1: the binding result with SIRPα-biotin [1] is reported as “no binding (tested: 1.8 mM)”; in the experiment with SIRPα-biotin [2] it was “no binding”.
